Data published in US4710505A, “Asymmetric heterocyclic ester derivatives of 1,4-dihydropyridine-3,5-dicarboxylic acids” (Societe de Recherches Industrielles (S.O.R.I.), priority 1985, dated 1987).

Test: in vivo
Settings: rat, intravenous, male Wistar rats weighing 300 g
Experimental: The LD50 was determined by intravenous administration to male Wistar rats weighing 300 g.

## COC(=O)C1=C(C)NC(C)=C(C(=O)OC)C1c1ccccc1[N+](=O)[O-] [nifedipine, dimethyl 1,4-dihydro-2,6-dimethyl-4-(2-nitrophenyl)pyridine-3,5-dicarboxylate, reference compound]
  LD50: 13.2 mg/kg
